# Experimental data published in the supplement of paper PMC3334620.
# Whole data set: some 33,000 sequences, median “E-score (-0.5 to 0.5)” near -8e-05, cut for the highest 2% near 0.23. Some of the results follow.
# Target: T1, Nrg2 (UniProt P38082)
# T1 sequence: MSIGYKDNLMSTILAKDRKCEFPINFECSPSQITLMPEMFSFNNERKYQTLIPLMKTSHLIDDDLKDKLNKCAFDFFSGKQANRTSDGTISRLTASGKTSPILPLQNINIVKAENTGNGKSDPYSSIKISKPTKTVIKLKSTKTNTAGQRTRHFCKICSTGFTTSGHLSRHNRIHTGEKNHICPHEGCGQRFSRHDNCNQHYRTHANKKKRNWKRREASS
# Test: PBM E-score (8-mer binding enrichment) (E-score (-0.5 to 0.5)); higher = stronger / more preferred TF binding
# Details: protein concentration: 100 nM; construct: GST-full length
# Procedure: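 Universal 'all 10-mer' protein binding microarrays (Agilent AMADID 015681) probed with GST-tagged S. cerevisiae TFs (full-length or DBD) made by in vitro transcription/translation (PURExpress), about 100-200 nM. Bound TF was detected with fluorescent anti-GST. Each ungapped 8-mer (which stands for itself and its reverse complement) is scored by the PBM enrichment score (E-score), a modified Wilcoxon-Mann-Whitney statistic from -0.5 to +0.5, computed with the Universal PBM Analysis Suite. Scale: above 0.35 generally sequence-specific binding.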
row,Sequence,PBM E-score
1,CTGCTTTA,0.23
2,CACCTGAA,0.0424
3,GGACAGTA,0.129
4,CTACCGGA,0.00436
5,CACCTATC,0.0791
6,TCGGTTCA,-0.286
7,GCTCGACC,-0.0125
8,CGGACTTC,-0.133
9,TAAAATAA,0.00492
10,ACAGTAAT,0.113
11,CTGGTGCC,-0.212
12,TGGACGAA,0.0736
13,ACGCCCGT,0.00139
14,CGTTGAGC,-0.0124
15,ATACCATA,0.128
16,CGACACCG,-0.23
17,AGCTATGG,-0.0356
18,CATTAAGG,0.154
19,AAATAACT,0.0562
20,TACGTCCA,-0.0712
21,CATGAAAC,0.0945
22,ATCTGTAC,0.215

# No new results follow: entries from further up.
row,Sequence,PBM E-score
16,CGACACCG,-0.23
17,AGCTATGG,-0.0356
18,CATTAAGG,0.154

# Continued.

row,Sequence,PBM E-score
1,ACGGCGAA,0.148
2,GTCGACGA,0.129
3,CCCTGGTA,0.0895
4,CAACCTAA,0.059
5,GAAAGGCA,-0.0231
6,GGAGTGGA,-0.105
7,ACGCGATC,0.146
8,ATGCCCAA,0.0341
9,GCCGATGA,-0.0746
10,GGCTTCAC,-0.169
11,GAGACACC,-0.0529
12,AGTCTGAT,0.0567
13,CGAGGACA,0.108
14,ATCTGGTG,-0.0125
15,CATATAGA,0.0434
16,CTAAACGA,0.0423
17,CTTCTCGA,0.0205
18,GACCTAAC,0.15
19,AAGTGTGT,-0.0253
20,GGAAAGGA,-0.147
21,AACGCCGG,-0.0471
22,ACAGTAGT,0.0965

row,Sequence,PBM E-score
1,CGTCTATA,-0.00075
2,CACGACCC,-0.00935
3,GCGTAGAA,-0.0145
4,ACTGTGTG,0.0512
5,ATTTTTAC,-0.0741
6,AACCTAGT,-0.0561
7,AGCTGCTG,0.0508
8,ATGTTGTA,0.128
9,CCGCCGGC,-0.0351
10,CCGTCAGA,-0.142
11,ACACAAAA,0.0735
12,ACTGAAAC,0.198
13,CTTTCCCC,-0.163
14,ATCTGCTA,-0.022
15,ACACGCCT,-0.0556
16,CTCGCGCA,-0.141
17,GTGGTAGA,-0.137
18,AATGCGCG,0.177
19,AGAAGCTA,-0.154
20,CAAGGCGG,-0.133
21,ACGTTGAC,-0.00444
22,GCAGGTAA,-0.0383

row,Sequence,PBM E-score
1,GTCCCCAA,0.14
2,AATGGCAC,-0.0263
3,ATACCCAA,0.132
4,CCGTCGAC,0.0126
5,CCCCAGGA,-0.135
6,GCTGATAC,-0.0795
7,AATGACCG,-0.153
8,ACCGGTGG,-0.381
9,GGACTCAC,0.0235
10,CCACAGAC,-0.0308
11,GAGGTCAC,-0.0775
12,CGACCCCC,-0.372
13,ATGAACCG,-0.148
14,ACGAAAGC,-0.0144
15,AATCGTCG,0.00168
16,ACCTTAAG,0.0116
17,CCCCGAAA,0.137
18,TAATCACA,0.0304
19,AATAGGTC,0.111
20,ACCGATTA,0.156
